In article PMC4772494:

T1: Nod-like receptor protein 1 (NLRP1) (rat (endogenous in spinal cord tissue and primary spinal cord neurons)) (UniProt D9I2F9)
T1 sequence: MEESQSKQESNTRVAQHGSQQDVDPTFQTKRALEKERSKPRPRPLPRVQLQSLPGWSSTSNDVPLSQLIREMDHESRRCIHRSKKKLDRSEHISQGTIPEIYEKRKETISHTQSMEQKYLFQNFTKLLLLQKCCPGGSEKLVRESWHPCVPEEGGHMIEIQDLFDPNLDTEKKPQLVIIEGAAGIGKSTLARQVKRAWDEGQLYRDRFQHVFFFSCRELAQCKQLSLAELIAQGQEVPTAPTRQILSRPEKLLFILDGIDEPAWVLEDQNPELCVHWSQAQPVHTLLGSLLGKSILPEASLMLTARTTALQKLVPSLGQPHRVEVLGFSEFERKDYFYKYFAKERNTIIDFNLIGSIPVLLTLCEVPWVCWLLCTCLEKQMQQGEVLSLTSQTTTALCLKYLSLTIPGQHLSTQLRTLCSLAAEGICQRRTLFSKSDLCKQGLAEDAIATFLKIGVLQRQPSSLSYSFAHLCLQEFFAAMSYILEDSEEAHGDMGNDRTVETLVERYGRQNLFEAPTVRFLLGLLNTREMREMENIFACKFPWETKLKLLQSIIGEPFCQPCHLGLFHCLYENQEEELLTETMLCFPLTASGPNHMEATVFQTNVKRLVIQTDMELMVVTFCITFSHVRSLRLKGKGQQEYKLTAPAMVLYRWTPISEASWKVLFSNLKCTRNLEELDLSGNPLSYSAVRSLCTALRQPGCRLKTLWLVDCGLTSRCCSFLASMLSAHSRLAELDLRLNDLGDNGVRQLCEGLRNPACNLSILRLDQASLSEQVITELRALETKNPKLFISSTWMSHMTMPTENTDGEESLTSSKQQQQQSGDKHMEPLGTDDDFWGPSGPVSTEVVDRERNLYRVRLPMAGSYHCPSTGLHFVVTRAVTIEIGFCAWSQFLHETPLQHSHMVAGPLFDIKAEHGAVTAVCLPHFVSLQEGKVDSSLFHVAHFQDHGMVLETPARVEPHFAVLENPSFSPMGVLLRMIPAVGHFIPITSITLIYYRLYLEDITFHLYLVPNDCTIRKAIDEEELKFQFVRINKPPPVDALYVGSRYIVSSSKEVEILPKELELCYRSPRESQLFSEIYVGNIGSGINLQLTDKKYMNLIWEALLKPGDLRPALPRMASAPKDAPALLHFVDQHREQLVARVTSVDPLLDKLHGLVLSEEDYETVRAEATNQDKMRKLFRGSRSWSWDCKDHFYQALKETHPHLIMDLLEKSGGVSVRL

B1: Nod-like receptor protein 1 (NLRP1) (protein, UniProt D9I2F9 1-1218)
chain: T1 sequence
B2: pro-caspase-1 (enzyme, UniProt P43527 1-402)
chain: MADKVLRAKRKQFINSVSVGTINGLLDELLEKRVLNQEEMDTIKLANITVMEKARDLCDHVTKKGPRASQMFITYICNEDCYLAEILELQSGPSAETVFVTEDSKGGHPFSSETKEKLNKEGGAFPGPSGSLKFCPLEIAQKLWKENHSEIYPIMKTPTRTRLALIICNTDFQHLSRRVGADVDLREMKLLLQDLGYTVKVKENLTALEMTKELKEFAACPEHKTSDSTFLVFMSHGLQEGICGITYSNEVADILKVDTIFQMMNTLKCPSLKDKPKVIIIQACRGEKQGVVLLKDSVGNSEEGFLTDAIFEDDGIKKAHIEKDFIAFCSSTPDNVSWRHPVRGSLFIESLIKHMKEYAWSCDLEDIFRKVRFSFEQPDSRLQMPTTERVTLTKRFYLFPGH
B3: caspase-1 p20 (domain or fragment, UniProt P43527 119-296)
chain: NKEGGAFPGPSGSLKFCPLEIAQKLWKENHSEIYPIMKTPTRTRLALIICNTDFQHLSRRVGADVDLREMKLLLQDLGYTVKVKENLTALEMTKELKEFAACPEHKTSDSTFLVFMSHGLQEGICGITYSNEVADILKVDTIFQMMNTLKCPSLKDKPKVIIIQACRGEKQGVVLLKD

Key:
[1] = molecular target: T1, Nod-like receptor protein 1 (NLRP1) (rat (endogenous in spinal cord tissue and primary spinal cord neurons)); assay: co-IP; primary rat spinal cord neuron lysates (untreated, or 6 h 10 μM H2O2) in 50 mM Tris-HCl pH 7.4, 150 mM NaCl, 0.5 % NP-40; anti-NLRP1 antibody coupled to magnetic Dynabeads, overnight at 4 °C, low-pH elution, immunoblot
[2] = molecular target: T1, Nod-like receptor protein 1 (NLRP1) (rat (endogenous in spinal cord tissue and primary spinal cord neurons)); assay: co-IP; rat spinal cord lysates (sham, or 24 h after SCI) in 50 mM Tris-HCl pH 7.4, 150 mM NaCl, 0.5 % NP-40; anti-ASC or anti-NLRP1 antibody coupled to magnetic Dynabeads, overnight at 4 °C, low-pH elution, immunoblot; pre-immune serum as negative control
[3] = molecular target: apoptosis-associated speck-like protein containing a caspase recruitment domain (ASC) (rat (endogenous in spinal cord tissue and primary spinal cord neurons)); assay: as above

Molecule	binding [1]	binding [2]	binding [3]
apoptosis-associated speck-like protein containing a caspase recruitment domain (ASC)	binds	binds	–
B1	–	–	binds
B2	–	–	binds
B3	–	–	binds

These are yes or no findings as the source states them, for the method shown. Binding seen in cells or lysates may run through a third protein. Binding can be weak; no strength is given.
